Assay results reported in paper PMC2651596.
Results are given in words; binding and its absence hold for the method and conditions named. Binding seen in cells or lysates may run through a third protein. A result given as binding can be weak or reduced; the word gives no strength.

Assays:
Assay in all cases: pull-down; GST fusion kinase bound to glutathione sepharose, incubated with 35S-labeled substrate; 4°C, 40 minutes, 20 mM Tris pH 7.5, 150 mM NaCl, 0.5% Nonidet P-40, 1 mM DTT; full-length CKIε and CKIα→ε constructs dephosphorylated with SAP, or CKIε autophosphorylated with ATP, on the resin; only the target purified
[1] = target: GST-CKIεΔC (Xenopus laevis)
[2] = target: full-length Xenopus CKIε fused to GST, dephosphorylated (Xenopus laevis)
[3] = target: GST-CKIεΔΔC (Xenopus laevis)

Measured: binding

B1: Xenopus Dishevelled, 35S-labelled (protein, UniProt P51142 1-736)
chain: MAETKVIYHLDEEETPYLVKVPVPATDIRLRDFKAALGRGHAKYFFKAMDQDFGVVKEEISDDNAKLPCFNDRVVSWLASSEGSQPDSAPPAPATEVRPEPPPPVPPPIPPPPAERTSGIGDSRPPSFHPNVSGSTEQLDQDNESVISMRRDRVRRRESSEQAGVGRGVNGRTERHLSGYESSSTLLTSEIETSICDSEEDDTMSRFSSSTEQSSASRLLKRHRRRRKQRPPRLERTSSFSSVTDSTMSLNIITVTLNMEKYNFLGISIVGQSNERGDGGIYIGSIMKGGAVAADGRIEPGDMLLQVNDINFENMSNDDAVRVLRDIVHKPGPIVLTVAKCWDPSPQGYFTLPRNEPIHPIDPAAWVSHSAALSGSFPVYPGSASMSSMTSSTSVTETELSHALPPVSLFSLSVHTDLASVVKVMASPESGLEVRDRMWLKITIPNAFLGSDVVDWLYHHVEGFQDRREARKFASNLLKAGFIRHTVNKITFSEQCYYIFGDLTGCENYMTNLSLNDNDGSSGASDQDTLAPLPLPGASPWPLLPTFSYQYQAPHPYSTQPPAYHELSSYSYGMGSAGSQHSEGSRSSGSNRSDGGRGMQKDDRSGVAGVGGGDSKSGSGSESEYSTRSSIRRVGGGEAGPPSERSTSSRLPPHHPPSVHSYAAPGVPLSYNPMMLMMMPPPPLPPPGVCPPNSSVPPGAPPLVRDLASVPPELTATRQSFHMAMGNPSEFFVDVM
modifications: 35S-methionine label
binds: [1] | [2] | [3]
